Results: article PMC4686813
These are yes or no findings as the source states them, for the method shown. For some assays here: In cells and extracts the contact can be indirect. Some binding calls cover weakened binding; strength is not graded here.

Chains of the proteins cited; added tags and fusions are not shown. Lines headed by an entry give the natural chain unless they say otherwise; changes in a name come on top.
UniProt P60467: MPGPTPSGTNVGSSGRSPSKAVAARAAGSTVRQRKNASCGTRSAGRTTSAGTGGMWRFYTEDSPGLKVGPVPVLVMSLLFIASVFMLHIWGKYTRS
UniProt P06625: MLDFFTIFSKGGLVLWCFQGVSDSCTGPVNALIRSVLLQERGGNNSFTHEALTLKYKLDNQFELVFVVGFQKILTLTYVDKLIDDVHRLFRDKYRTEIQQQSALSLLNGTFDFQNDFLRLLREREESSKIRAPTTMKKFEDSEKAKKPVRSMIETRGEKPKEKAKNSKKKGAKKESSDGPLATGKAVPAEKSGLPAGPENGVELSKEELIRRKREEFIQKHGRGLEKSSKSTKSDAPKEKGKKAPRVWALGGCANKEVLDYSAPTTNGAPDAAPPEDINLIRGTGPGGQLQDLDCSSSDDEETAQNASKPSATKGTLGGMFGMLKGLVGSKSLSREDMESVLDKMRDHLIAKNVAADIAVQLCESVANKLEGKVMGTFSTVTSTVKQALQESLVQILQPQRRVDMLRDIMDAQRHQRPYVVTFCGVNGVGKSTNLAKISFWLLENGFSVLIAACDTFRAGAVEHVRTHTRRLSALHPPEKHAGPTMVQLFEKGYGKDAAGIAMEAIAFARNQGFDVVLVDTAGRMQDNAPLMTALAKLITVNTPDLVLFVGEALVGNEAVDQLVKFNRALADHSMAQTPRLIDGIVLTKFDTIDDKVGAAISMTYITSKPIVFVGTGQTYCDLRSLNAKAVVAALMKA

Key:
[1] = target: Sec61β (dog (endogenous in canine pancreatic microsomes)) (UniProt P60467); test: cross-linking; proteoliposomes reconstituted with purified Sec61 alone or together with purified endogenous SR and signal peptidase complex, BMH (10 μM); western blot for Sec61β; both purified
[2] = target: Sec61β (dog (endogenous in canine pancreatic microsomes)) (UniProt P60467); test: cross-linking; EKRM (100 eq) treated with 40 μM BMH, denatured in SDS, immunoprecipitated with anti-SRα or a non-related antiserum; western blot for Sec61β

Substance: endogenous SRP receptor (SR) (from UniProt P06625 1-638; A0A8I3Q3L6 1-271) (complex)
- binding [1]: binds weakly
- binding [2]: binds
